Measurements from PMC11524475.
These are yes or no findings as the source states them, for the method shown. In cells and extracts the contact can be indirect. Where a sequence is shown, tags or fusion partners need not be part of it.

Biological target: NbZAR1 (ZAR1 from Nicotiana benthamiana), C-terminally 3xFLAG- or 4xMyc-tagged (Nicotiana benthamiana)
Assay: co-IP; C-terminally 3xFLAG-tagged bait co-expressed with C-terminally 4xMyc-tagged prey in N. benthamiana leaves; FLAG IP with anti-FLAG agarose beads, 90 min at 4°C, GTEN buffer (10% glycerol, 50 mM Tris-HCl pH 7.5, 5 mM MgCl2, 50 mM NaCl) with 10 mM DTT and 0.2% IGEPAL; eluted with 3xFLAG peptide; anti-Myc and anti-FLAG immunoblot

B1: NbZAR1 (ZAR1 from Nicotiana benthamiana), C-terminally 3xFLAG- or 4xMyc-tagged (protein, UniProt A0A385HBS4 1-845)
chain: MVDAVVTVFLEKLLHVLTEESRFLTKYRQQFEKLKNELLFMQSFLKDAERLKRKNNTLKGVMSCLRDLIFEAEEILEDCQNQSADSDRATTCFHPKRLSLRHQTGKCLAKINDRISEIKQNISTYLGVPLLEEGSMEAHNNLMSRWTSSLYDHTQVVGLEGDTEKIKDWLFEARDGLLTIAFVGMGGLGKTTLAQKVFNDKRVEDHLERRIWVSVSQTFTEEQVMRSILRSLGDACVGDDQCELLRKINQYLLGKRFLIVMDDVWSWDNAWWQKIYTGLPKGNGSTVIVTTRNELVARKMGVTEARIHWPKFLNEHYSWLLFRKIAFAGSAGECHFPELEDVGKEIVEKCKGLPLAIKAVGGVMLCKPSYYHEWRRISNHFRDELKENDDSVMASLQLSYDELPPYLKSCFLCFSLFPEDCVIPKDQLIRWWIGEGFIPLRSGRLSTEVGEDCFSQLSNRCLIEVVDKAYNGVIHTCKMHDMVRDLVIKLAEDDAFFTPADATCRHLGIKSEMNWKQLLSNQKLRALLTTTKSGEVNKIHSDIAKKLCKSRHLQVLDLSKSIFDVPLSSLLEGIGSAKQLTYLSLSNTHPMIGVPASISKLEKLQILDFSYCQNMKMLPSCVLTFEELAVLDVNNCGSLEYLPKGLSRLSNLQVLLGFKPAKLSQPGGCRIAELRSLTRLRTLSLRLTENEEIGDDEGNALVDLQELQFLTISCFGSQDNGLATKLGRLYPPRQLHELILKFYPSKTSPEWLNPNLSPMLRYLSIISGDITQMHENFWGDGSTAWKIEGLMLESLSDLRLEWSAMHQVMPSLRILKVSWCPELESFPIEDAGFRGGLWKKEEHRN
  binding: no binding
